Experimental data published in paper PMC4712785.
No constants are given. Whether binding was seen depends on the method and setting. Some binding calls cover weakened binding; strength is not graded here. Sequences can lack the tags named with a protein.

Target: T1, Gal4 DNA-binding domain fusion of Rom2 (S. cerevisiae) (UniProt P51862)
T1 sequence: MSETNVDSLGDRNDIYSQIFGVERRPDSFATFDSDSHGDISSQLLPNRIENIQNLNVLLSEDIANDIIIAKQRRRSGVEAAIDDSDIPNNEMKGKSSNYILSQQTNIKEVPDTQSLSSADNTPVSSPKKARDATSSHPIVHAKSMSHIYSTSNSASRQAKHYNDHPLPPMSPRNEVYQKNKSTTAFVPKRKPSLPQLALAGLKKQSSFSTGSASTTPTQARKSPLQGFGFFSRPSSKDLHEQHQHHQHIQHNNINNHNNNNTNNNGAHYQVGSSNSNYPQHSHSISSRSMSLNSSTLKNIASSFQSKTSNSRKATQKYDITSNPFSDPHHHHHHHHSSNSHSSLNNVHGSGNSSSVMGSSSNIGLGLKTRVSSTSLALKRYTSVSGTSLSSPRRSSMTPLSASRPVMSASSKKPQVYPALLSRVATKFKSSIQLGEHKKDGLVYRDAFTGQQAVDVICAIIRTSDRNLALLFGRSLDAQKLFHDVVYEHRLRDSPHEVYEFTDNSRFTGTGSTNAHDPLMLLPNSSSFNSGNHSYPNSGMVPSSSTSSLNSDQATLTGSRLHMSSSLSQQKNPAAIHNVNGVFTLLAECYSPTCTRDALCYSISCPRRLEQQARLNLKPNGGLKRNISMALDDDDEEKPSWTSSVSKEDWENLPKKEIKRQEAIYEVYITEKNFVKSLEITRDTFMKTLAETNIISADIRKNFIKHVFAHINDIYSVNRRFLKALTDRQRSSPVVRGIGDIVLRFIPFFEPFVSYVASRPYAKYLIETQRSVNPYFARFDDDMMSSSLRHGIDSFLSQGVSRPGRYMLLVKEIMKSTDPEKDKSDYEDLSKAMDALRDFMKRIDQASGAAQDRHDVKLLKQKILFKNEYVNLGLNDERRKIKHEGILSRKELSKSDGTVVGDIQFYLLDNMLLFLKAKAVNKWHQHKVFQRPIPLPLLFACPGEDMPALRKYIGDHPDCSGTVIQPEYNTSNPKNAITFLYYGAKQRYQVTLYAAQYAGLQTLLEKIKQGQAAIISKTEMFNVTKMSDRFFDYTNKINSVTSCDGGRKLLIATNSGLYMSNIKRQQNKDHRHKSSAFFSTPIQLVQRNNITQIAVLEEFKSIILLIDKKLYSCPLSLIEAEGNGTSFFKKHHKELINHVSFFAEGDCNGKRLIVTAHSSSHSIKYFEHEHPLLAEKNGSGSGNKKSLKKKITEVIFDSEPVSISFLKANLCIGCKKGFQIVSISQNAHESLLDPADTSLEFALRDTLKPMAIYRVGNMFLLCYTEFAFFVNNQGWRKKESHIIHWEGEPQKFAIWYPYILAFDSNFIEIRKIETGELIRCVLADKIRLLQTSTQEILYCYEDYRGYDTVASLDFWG
Test: two-hybrid; yeast two-hybrid in PJ69-4a cells; Gal4 DBD fusions (pGBT9-derived) as bait, Gal4 TAD fusions (pACT2-derived) as prey; growth on SC-Leu-Trp-His, 4 days at 30°C

binding: binds
B1: Gal4 transcriptional activation domain fusion of the Aly2 C-terminus (residues 600-1046) (domain or fragment, UniProt P47029 600-1046)
chain: PSTSLTRNSRQFNRNSKSHPSDNTIFNSAKLKSNIYQPESLQRELASPQAIPLSPITSPMSNMEVPPPDFDFSSDFISDAASGTTTTEVSSSESSILPRDPPSYKDTVLHDNNQKRRPNSKHPTPPSLKASHPNKNSDKNSSETLNKKESMSKIEENKHKRETTPKKRENRDVKSLSTPQREESKDSTSTGNQSNEKNRKRVLSLSSSLHSSPNNSGFAHSALGNLSNESLRSLNRRESVQDNLPSTIRHDNPFFTDLNQVLIEDELKNHDKNELNRHSTNTSSTPASARSSFDYSGINISKDKLNMEPLLSKTETLTNKVNEDSFLRPNDSYVDLLEPSVDTTIDITAPYARNSSAWHPLQNDNDNNQFSPLLGSNENFLNAANAQNSAESDHNNDIFTQGSGLTESSKNSDSEERFISRLSSPEKVLINTLDNESGLQSINESTL
